# Data reported in patent publication US12115178B2, “Acylated active agents and methods of their use for the treatment of autoimmune disorders” (Flagship Pioneering Innovations V, Inc., priority 2018, dated 2024).
# Some of these results come from one statement about several compounds together.
# Experiment: Assay 2. Stability in Simulated Intestinal Fluid (SIF)
# Format: in vitro ADME
# Conditions: conclusion drawn from Table 1 (SGF vs SIF stability)
# Method: Assay 2. Stability of acylated active agents in Simulated Intestinal Fluid (SIF). This assay was used to assess the stability of an acylated active agent in a small intestine. Phosphate buffer was prepared by dissolving 0.42 g of sodium hydroxide pellets and 3.95 g of monobasic sodium phosphate monohydrate and 6.19 g of sodium chloride in ultrapure water (MilliQ®, Millipore Sigma, Darmstadt, Germany). The pH was adjusted to 6.7 using aq. HCl and aq. NaOH, as necessary, and the solution was diluted with ultrapure water to produce 1 L of the pH 6.7 buffer. 112 mg FaSSIF powder (Biorelevant™, London, UK) was dissolved in 50 mL of the pH 6.7 buffer. 2 to 3 mL of the resulting solution were then added to 500 mg pancreatin (Millipore Sigma, Darmstadt, Germany). The resulting mixture was agitated by finger tapping the vessel containing the mixture until milky suspension formed. At this time, the remainder of the 50 mL FaSSiF/pH 6.7 buffer solution was added. The resulting suspension was flipped upside down 10 times to produce SIF, which was used fresh. Test compounds were dissolved in DMSO stock to 1 mM. An aliquot of the DMSO stock solution was removed and diluted in the SIF media in 15 mL falcon tubes to produce a mixture with a tested compound concentration of 1 μM. A 1 mL aliquot was immediately removed and diluted once with 1 volume of acetonitrile for T0 timepoint. The mixture was sealed and agitated at 37° C. in an incubator. Aliquots (1 mL) were removed at regular intervals and immediately quenched by the addition of 1 volume of acetonitrile. The resulting samples were analyzed by LC/MS to determine degradation rates.
row,Compound,selective delivery to the upper intestine
1,"CCC(=O)Oc1cc(OC(=O)CC)c2c(=O)c(OC(=O)CC)c(-c3cc(OC(=O)CC)c(OC(=O)CC)c(OC(=O)CC)c3)oc2c1 [Compound 13, [4-oxo-3,5-di(propanoyloxy)-2-[3,4,5-tri(propanoyloxy)phenyl]chromen-7-yl] propanoate]",can be selectively delivered to the upper intestine
2,"CC(=O)Oc1cc(OC(C)=O)c2c(c1)O[C@H](c1cc(OC(C)=O)c(OC(C)=O)c(OC(C)=O)c1)[C@H](OC(=O)c1cc(OC(C)=O)c(OC(C)=O)c(OC(C)=O)c1)C2 [Compound 2, [(2R,3R)-5,7-diacetoxy-2-(3,4,5-triacetoxyphenyl)chroman-3-yl] 3,4,5-triacetoxybenzoate]",can be selectively delivered to the upper intestine
3,"CC(=O)Oc1ccc(C2CC(=O)c3c(OC(C)=O)cc(OC(C)=O)cc3O2)cc1 (stereo not shown) [Compound 9, [4-(5,7-diacetoxy-4-oxo-chroman-2-yl)phenyl] acetate]",can be selectively delivered to the upper intestine
4,"CCCC(=O)Oc1ccc(C2CC(=O)c3c(OC(=O)CCC)cc(OC(=O)CCC)cc3O2)cc1 (stereo not shown) [Compound 10, [4-[5,7-di(butanoyloxy)-4-oxo-chroman-2-yl]phenyl] butanoate]",can be selectively delivered to the upper intestine
5,"CCC(=O)Oc1cc(OC(=O)CC)c2c(=O)c(OC(=O)CC)c(-c3ccc(OC(=O)CC)c(OC(=O)CC)c3)oc2c1 [Compound 14, [4-[4-oxo-3,5,7-tri(propanoyloxy)chromen-2-yl]-2-propanoyloxy-phenyl] propanoate]",can be selectively delivered to the upper intestine
6,"CCCC(=O)O[C@@H]1[C@@H](OC(=O)CCC)[C@H](C)O[C@@H](Oc2ccc(N)cc2C(=O)O)[C@@H]1OC(=O)CCC [Compound 39, 5-amino-2-(((2S,3R,4R,5S,6S)-3,4,5-tris(butyryloxy)-6-methyltetrahydro-2H-pyran-2-yl)oxy)benzoic acid]",can be selectively delivered to the upper intestine
7,"CCC(=O)O[C@@H]1[C@@H](OC(=O)CC)[C@H](Oc2ccccc2C(=O)O)OC[C@H]1OC(=O)CC [Compound 27, 2-(((2S,3R,4S,5R)-3,4,5-tris(propionyloxy)tetrahydro-2H-pyran-2-yl)oxy)benzoic acid]",can be selectively delivered to the upper intestine
8,"CC(=O)Oc1cc(OC(C)=O)c2c(=O)c(OC(C)=O)c(-c3ccc(OC(C)=O)c(OC(C)=O)c3)oc2c1 [Compound 4, [2-acetoxy-4-(3,5,7-triacetoxy-4-oxo-chromen-2-yl)phenyl] acetate]",can be selectively delivered to the upper intestine
9,"CCCC(=O)O[C@@H]1[C@@H](OC(=O)CCC)[C@@H](Oc2ccc(N)cc2C(=O)O)OC[C@@H]1OC(=O)CCC [Compound 22, 5-amino-2-[(2R,3R,4S,5S)-3,4,5-tri(butanoyloxy)tetrahydropyran-2-yl]oxy-benzoic acid]",can be selectively delivered to the upper intestine
10,"CCCC(=O)O[C@@H]1[C@@H](OC(=O)CCC)[C@H](Oc2ccc(N)cc2C(=O)O)OC[C@H]1OC(=O)CCC [Compound 19, 5-amino-2-[(2S,3R,4S,5R)-3,4,5-tri(butanoyloxy)tetrahydropyran-2-yl]oxy-benzoic acid]",can be selectively delivered to the upper intestine
11,"CCCC(=O)O[C@@H]1[C@@H](OC(=O)CCC)[C@@H](Oc2ccc(N)cc2C(=O)O)OC[C@H]1OC(=O)CCC [Compound 18, 5-amino-2-[(2R,3R,4S,5R)-3,4,5-tri(butanoyloxy)tetrahydropyran-2-yl]oxy-benzoic acid]",can be selectively delivered to the upper intestine
12,"CCC(=O)O[C@@H]1[C@@H](OC(=O)CC)[C@H](Oc2ccccc2C(=O)O)OC[C@@H]1OC(=O)CC [Compound 26, 2-(((2S,3R,4S,5S)-3,4,5-tris(propionyloxy)tetrahydro-2H-pyran-2-yl)oxy)benzoic acid]",can be selectively delivered to the upper intestine
13,"CCCC(=O)O[C@@H]1[C@@H](OC(=O)CCC)[C@@H](Oc2ccccc2C(=O)O)OC[C@@H]1OC(=O)CCC [Compound 31, 2-(((2R,3R,4S,5S)-3,4,5-tris(butyryloxy)tetrahydro-2H-pyran-2-yl)oxy)benzoic acid]",can be selectively delivered to the upper intestine
